Laboratory results published in PubChem BioAssay (EPA / NIEHS).
Inconclusive results, whose numbers are uncertain, are shown with a selection of clear calls. Potencies of inconclusive entries are doubtful fits and often do not repeat. Activity calls are given as the source filed them. How the source made its calls: active means hit-call score of the fitted dose curve at least 0.9, where 1 is the maximum; inconclusive means response in the unintended direction; inactive means score below 0.9.

Assay: ACEA_AR_agonist_AUC_viability: ACEA Biosciences xCELLigence Real-Time Cell Analysis on Androgen Receptor Agonism for Viability (AID 2283775);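 on AC50: viability read 80 hours after compound addition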
Summary of the method: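 22Rv1 cells; impedance growth kinetics; 8-pt 1:4 dilutions from 100 uM top final, ≤0.5% DMSO; n = 2; 80 h read; AUC viability, loss-of-signal vs DMSO.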

Row | SMILES | AC50 | outcome
1 | CC(C)N1C(=O)N(c2ccccc2)CSC1=NC(C)(C)C | active: 28.9 µM | –
2 | CCNS(=O)(=O)C(F)(F)C(F)(F)C(F)(F)C(F)(F)C(F)(F)C(F)(F)C(F)(F)C(F)(F)F | inconclusive: 25 µM | –
3 | Nn1cnnc1 | inconclusive: 10.9 µM | –
4 | COc1cc(C=O)cc2c1[C@H](COC(N)=O)[C@]1(OC(C)=O)ON2C[C@H]2[C@@H]1N2C(C)=O | active: 0.0199 µM | –
5 | CS(=O)(=O)c1cc(C(F)(F)F)ccc1C(=O)c1cnoc1C1CC1 | inconclusive: 50 µM | –
6 | CC(C)(C)N(NC(=O)c1ccc(Cl)cc1)C(=O)c1ccccc1 | – | inactive
7 | CC1(c2ccc(Oc3ccccc3)cc2)OC(=O)N(Nc2ccccc2)C1=O (centres undefined) | active: 1.01 µM | –
8 | N#CCCC(Br)(C#N)CBr (centres undefined) | inconclusive: 0.488 µM | –
9 | CNC(=O)Oc1cccc2c1OC(C)(C)C2 | – | inactive
10 | Cc1ccc(N)cc1N | inconclusive: 50 µM | –
11 | ClCC(Cl)CCl | inconclusive: 50 µM | –
12 | ClC1=C(Cl)[C@]2(Cl)[C@@H]3[C@@H]4C[C@@H]([C@H]5O[C@@H]45)[C@@H]3[C@@]1(Cl)C2(Cl)Cl | active: 50 µM | –
13 | CC(C)COC(=O)c1ccccc1C(=O)OCC(C)C | active: 74.9 µM | –
14 | O=C(N[C@H]1CN2CCC1CC2)c1cc2ccoc2cn1 | – | inactive
15 | CNC(=O)Oc1cccc2ccccc12 | inconclusive: 0.00061 µM | –
16 | CCc1cccc(CC)c1N(COC)C(=O)CCl | active: 50 µM | –
17 | O=C(Nc1ccccc1)Nc1cnns1 | active: 28.6 µM | –
18 | O=C(N[C@H]1CN2CCC1CC2)c1ccc2c(c1)OCCO2 | inconclusive: 0.0044 µM | –
19 | CCCCC(O)(Cn1cncn1)c1ccc(Cl)cc1Cl (centres undefined) | active: 69.8 µM | –
20 | COP(=O)(OC)OC(Br)C(Cl)(Cl)Br (centres undefined) | active: 75.1 µM | –
21 | CNC(=O)ON=C(SC)C(=O)N(C)C | – | inactive

Assay: ACEA_AR_antagonist_AUC_viability: ACEA Biosciences xCELLigence Real-Time Cell Analysis on Androgen Receptor Antagonism for Viability (AID 2283776);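 further: 22Rv1 human prostate cancer cells growing on impedance electrode plates; area under impedance growth curve at 80 h after dosing as viability; hits lower the growth signal relative to DMSO meaning cytotoxicity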
Summary of the method: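 Impedance read-out (RT-CES): area under growth curve at 80 h post-dose, loss of signal scored vs DMSO baseline. 22Rv1 cells; 8-pt 1:4 series, top 100 uM final, ≤0.5% DMSO; biological duplicate.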

Row | SMILES | outcome | AC50
22 | CNC(=O)Oc1cccc(N=CN(C)C)c1 | inactive | –
23 | Cc1cc(Cl)ccc1OC(C)C(=O)O (centres undefined) | – | inconclusive: 4.5 µM
24 | COc1cc(OC)nc(NC(=O)NS(=O)(=O)c2ncccc2OCC(F)(F)F)n1 | – | inconclusive: 0.00061 µM
25 | CNC(=S)S | – | inconclusive: 0.0988 µM
26 | CCCCOC(=O)[C@@H](C)Oc1ccc(Oc2ccc(C#N)cc2F)cc1 | – | active: 62.3 µM
27 | Oc1ccccc1-c1ccccc1 | – | inconclusive: 17 µM
28 | CCCCOCCOP(=O)(OCCOCCCC)OCCOCCCC | inactive | –
29 | CCCSP(=S)(OCC)Oc1ccc(SC)cc1 (centres undefined) | – | inconclusive: 0.149 µM
30 | CC(C)(c1ccccc1)c1ccc(O)cc1 | – | active: 13.3 µM
31 | CC(=O)C=C(C)C | inactive | –
32 | N#Cc1c(Cl)c(Cl)c(Cl)c(C#N)c1Cl | – | active: 3.7 µM
33 | CCC(=NOC/C=C/Cl)C1=C(O)CC(C2CCOCC2)CC1=O (centres undefined) | – | inconclusive: 0.000611 µM
34 | Clc1cccc(Cl)c1 | inactive | –
35 | CCC[CH2][Sn]([Cl])([CH2]CCC)[CH2]CCC | – | active: 0.631 µM
36 | Clc1ccc(C(c2ccc(Cl)cc2)C(Cl)Cl)cc1 | – | active: 18.1 µM
37 | C=CC1(C)OC(=O)N(c2cc(Cl)cc(Cl)c2)C1=O (centres undefined) | – | active: 83.7 µM
38 | NC(=O)O | – | inconclusive: 0.00562 µM
39 | COP(=O)(OC)O/C(=C\Cl)c1cc(Cl)c(Cl)cc1Cl | – | inconclusive: 0.0138 µM

Two entries from above, in markdown:

| Row | SMILES | outcome | AC50 |
| --- | --- | --- | --- |
| 27 | Oc1ccccc1-c1ccccc1 | – | inconclusive: 17 µM |
| 38 | NC(=O)O | – | inconclusive: 0.00562 µM |
